# Literature values in US20060083830A1, “Polylysine-containing food additive and acidic adjuvant” (priority 2004, published 2006).
# Some entries share one result that the patent states for a list of compounds. At least one compound was matched to its structure with a doubt left.
# Test system: pathogens
# Conditions: applied as aqueous solution; depending on concentration, temperature and contact time; cited from earlier work
row,SMILES,log reduction of pathogens
1,O=[O+][O-] [ozone],2-4 log
2,[O][Cl+][O-] [chlorine dioxide],2-4 log
